In publication doi:10.1101/736389:
No constants are given. Whether binding was seen depends on the method and setting. In cells and extracts the contact can be indirect. Some binding calls cover weakened binding; strength is not graded here. Tags and fused reporters may be left off the sequences shown. Each block holds one molecule with its values, some of them ahead of it.

Chains of the proteins cited; added tags and fusions are not shown. Lines headed by an entry give the natural chain unless they say otherwise; changes in a name come on top. Residues count along the entry.
UniProt Q9UHB6: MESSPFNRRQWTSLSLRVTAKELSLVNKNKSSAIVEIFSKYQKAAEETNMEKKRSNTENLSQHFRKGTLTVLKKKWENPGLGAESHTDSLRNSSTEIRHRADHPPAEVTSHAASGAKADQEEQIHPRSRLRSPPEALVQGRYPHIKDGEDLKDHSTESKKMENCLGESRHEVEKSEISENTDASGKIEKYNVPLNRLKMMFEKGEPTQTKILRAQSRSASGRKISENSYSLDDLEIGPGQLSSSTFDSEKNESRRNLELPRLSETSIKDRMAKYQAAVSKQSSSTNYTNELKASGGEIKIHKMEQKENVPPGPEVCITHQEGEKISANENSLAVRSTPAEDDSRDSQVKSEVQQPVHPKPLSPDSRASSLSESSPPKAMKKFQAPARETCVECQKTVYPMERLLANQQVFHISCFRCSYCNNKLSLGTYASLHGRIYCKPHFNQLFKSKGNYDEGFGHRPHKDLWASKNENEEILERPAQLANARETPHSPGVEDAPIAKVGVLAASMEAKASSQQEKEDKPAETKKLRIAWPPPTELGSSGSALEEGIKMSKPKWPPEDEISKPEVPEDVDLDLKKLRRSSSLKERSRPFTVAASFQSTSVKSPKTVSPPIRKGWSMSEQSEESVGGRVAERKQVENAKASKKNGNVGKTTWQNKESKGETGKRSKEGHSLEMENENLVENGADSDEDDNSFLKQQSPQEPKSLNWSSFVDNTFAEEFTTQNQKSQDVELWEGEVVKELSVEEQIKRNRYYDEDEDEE
endogenous EPLIN isoform α: residues 161-759 of Q9UHB6

Experiments:
[1] = biological target: T1, GFP-tagged LUZP1 (human) (UniProt Q86V48); experiment: co-IP
T1 sequence: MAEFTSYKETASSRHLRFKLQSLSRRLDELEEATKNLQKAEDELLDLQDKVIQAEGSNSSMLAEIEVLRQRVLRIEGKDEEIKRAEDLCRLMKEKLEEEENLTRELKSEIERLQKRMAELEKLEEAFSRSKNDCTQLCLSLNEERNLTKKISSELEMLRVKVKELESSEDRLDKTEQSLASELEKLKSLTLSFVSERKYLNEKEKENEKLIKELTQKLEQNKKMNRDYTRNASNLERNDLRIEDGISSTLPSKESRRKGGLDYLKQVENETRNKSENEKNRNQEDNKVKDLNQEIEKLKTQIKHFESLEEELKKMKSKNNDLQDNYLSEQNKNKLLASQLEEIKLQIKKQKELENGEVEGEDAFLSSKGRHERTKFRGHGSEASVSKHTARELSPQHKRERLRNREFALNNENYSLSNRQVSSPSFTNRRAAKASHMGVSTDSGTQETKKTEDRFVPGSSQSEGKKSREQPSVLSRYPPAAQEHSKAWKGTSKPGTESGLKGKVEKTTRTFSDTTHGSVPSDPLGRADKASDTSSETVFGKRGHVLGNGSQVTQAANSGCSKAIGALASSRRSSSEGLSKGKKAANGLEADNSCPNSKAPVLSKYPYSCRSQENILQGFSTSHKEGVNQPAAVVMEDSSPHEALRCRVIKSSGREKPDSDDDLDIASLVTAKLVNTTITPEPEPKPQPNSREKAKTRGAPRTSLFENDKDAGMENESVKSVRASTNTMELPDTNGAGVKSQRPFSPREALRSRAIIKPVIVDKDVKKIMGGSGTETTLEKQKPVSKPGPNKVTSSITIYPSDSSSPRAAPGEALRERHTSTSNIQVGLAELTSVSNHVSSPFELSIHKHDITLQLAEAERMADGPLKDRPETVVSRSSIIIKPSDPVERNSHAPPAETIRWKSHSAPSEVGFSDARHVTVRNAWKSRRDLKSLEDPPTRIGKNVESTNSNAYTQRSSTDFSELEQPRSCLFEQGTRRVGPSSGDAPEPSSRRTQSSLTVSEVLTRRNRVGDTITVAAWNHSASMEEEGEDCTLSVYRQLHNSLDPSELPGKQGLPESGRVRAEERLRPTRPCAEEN

[2] = biological target: GFP-EPLINβ (expressed in HEK293 FLAG-LUZP1 lines) (human) (UniProt Q9UHB6); experiment: co-IP

B2: FLAG-LUZP1 (aa 297-1076) (domain or fragment, UniProt Q86V48-1 297-1076)
chain: KLKTQIKHFESLEEELKKMKSKNNDLQDNYLSEQNKNKLLASQLEEIKLQIKKQKELENGEVEGEDAFLSSKGRHERTKFRGHGSEASVSKHTARELSPQHKRERLRNREFALNNENYSLSNRQVSSPSFTNRRAAKASHMGVSTDSGTQETKKTEDRFVPGSSQSEGKKSREQPSVLSRYPPAAQEHSKAWKGTSKPGTESGLKGKVEKTTRTFSDTTHGSVPSDPLGRADKASDTSSETVFGKRGHVLGNGSQVTQAANSGCSKAIGALASSRRSSSEGLSKGKKAANGLEADNSCPNSKAPVLSKYPYSCRSQENILQGFSTSHKEGVNQPAAVVMEDSSPHEALRCRVIKSSGREKPDSDDDLDIASLVTAKLVNTTITPEPEPKPQPNSREKAKTRGAPRTSLFENDKDAGMENESVKSVRASTNTMELPDTNGAGVKSQRPFSPREALRSRAIIKPVIVDKDVKKIMGGSGTETTLEKQKPVSKPGPNKVTSSITIYPSDSSSPRAAPGEALRERHTSTSNIQVGLAELTSVSNHVSSPFELSIHKHDITLQLAEAERMADGPLKDRPETVVSRSSIIIKPSDPVERNSHAPPAETIRWKSHSAPSEVGFSDARHVTVRNAWKSRRDLKSLEDPPTRIGKNVESTNSNAYTQRSSTDFSELEQPRSCLFEQGTRRVGPSSGDAPEPSSRRTQSSLTVSEVLTRRNRVGDTITVAAWNHSASMEEEGEDCTLSVYRQLHNSLDPSELPGKQGLPESGRVRAEERLRPTRPCAEEN
- binding [2]: binds

B3: FLAG-LUZP1 (aa 1-296) (domain or fragment, UniProt Q86V48-1 1-296)
chain: MAEFTSYKETASSRHLRFKLQSLSRRLDELEEATKNLQKAEDELLDLQDKVIQAEGSNSSMLAEIEVLRQRVLRIEGKDEEIKRAEDLCRLMKEKLEEEENLTRELKSEIERLQKRMAELEKLEEAFSRSKNDCTQLCLSLNEERNLTKKISSELEMLRVKVKELESSEDRLDKTEQSLASELEKLKSLTLSFVSERKYLNEKEKENEKLIKELTQKLEQNKKMNRDYTRNASNLERNDLRIEDGISSTLPSKESRRKGGLDYLKQVENETRNKSENEKNRNQEDNKVKDLNQEIE
- binding [2]: no binding

The remaining lines, values ahead:

- binding [1]: binds
Molecule: endogenous EPLIN isoform β (from UniProt Q9UHB6 1-759)

- binding [1]: binds
Molecule: endogenous EPLIN isoform α (from UniProt Q9UHB6-2 1-599)

- binding [2]: binds
B1: FLAG-LUZP1 (full length) (protein, UniProt Q86V48-1 1-1076)
chain: T1 sequence
